Source: publication doi:10.1101/2021.01.31.428746
These are yes or no findings as the source states them, for the method shown.

By UniProt entry, the sequences of proteins in these tests, tags left out. Residues count along the entry.
UniProt P9WLS1, residues 28-143: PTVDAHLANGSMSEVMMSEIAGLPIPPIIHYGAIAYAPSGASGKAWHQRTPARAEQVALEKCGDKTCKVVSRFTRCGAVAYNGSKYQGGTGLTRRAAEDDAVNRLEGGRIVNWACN

Molecular target: Rv1813c_(28-143), recombinant Rv1813c without its signal peptide (Mycobacterium tuberculosis) (UniProt P9WLS1)
Assay: SEC-MALS

How did the binding turn out when “Rv1813c_(28-143), recombinant Rv1813c without its signal peptide (from UniProt P9WLS1 28-143)” was run?
Its binding is “no binding”.
